Some test systems named below: MeWo; RPMI7951; RVH-421; SkMel28; SkMel30; UACC62; SkMel2; SkMel5; UACC257.
Common to all, as to assay: cleaved PARP positive nuclei fraction relative to DMSO control; melanoma cells; higher = more apoptosis
Holding throughout (conditions): library dose: low library concentration; 72 h

From the supplement of paper PMC4604168 (melanoma cell lines) come the findings set out here.

This is one part of the list. Single values are uncertain, as repeats are few or missing.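 The apoptosis fraction was the count of cleaved-PARP antibody-stained nuclei relative to all DNA-stained nuclei, imaged in 1,536-well plates. Screening doses were set so most cells survived, and baseline and induced cleaved-PARP levels vary greatly across cell lines.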

For `Cn1sc(=O)n(Cc2ccccc2)c1=O` + O=C(O)[C@@H]1[O][Sb](=[O])([O][Sb]2(=[O])[O][C@H]([C@H](O)CO)[C@H](O)[C@H](C(=O)O)[O]2)[O][C@H]([C@H](O)CO)[C@@H]1O [stibogluconate] (first compound 0.4 µM, partner dose 2 µM), the “cleaved PARP positive nuclei fraction” value in the assay with MeWo worked out at 68.6%; in the assay with RPMI7951, 164%; in the assay with RVH-421, 113%; in the assay with SkMel28 it was 22.5%; in the assay with SkMel30, 74%; with UACC62 it was 100%.
As to `Cn1sc(=O)n(Cc2ccccc2)c1=O` + Nc1ccn([C@@H]2O[C@H](CO)[C@@H](O)C2(F)F)c(=O)n1 [gemcitabine] (first compound 0.4 µM, partner dose 0.0004 µM), the “cleaved PARP positive nuclei fraction” value in the assay with MeWo was 56.6%; in the assay on RPMI7951, 142%; with RVH-421 it was 155%; in the assay with SkMel28 it was 71%; in the assay on SkMel2, 119%; in the assay with SkMel30, 75.6%. Also, the “cleaved PARP positive nuclei fraction” value in the assay with UACC62 was 45.4%.
In the case of `Cn1sc(=O)n(Cc2ccccc2)c1=O` + C=CCNC1=C2C[C@@H](C)C[C@H](OC)[C@H](O)[C@@H](C)/C=C(\C)[C@H](OC(N)=O)[C@@H](OC)/C=C\C=C(/C)C(=O)NC(=CC1=O)C2=O [Tanespimycin] (first compound 0.4 µM, partner dose 0.002 µM), the “cleaved PARP positive nuclei fraction” value in the assay on MeWo was determined as 136%; in the assay on RPMI7951, 98%; in the assay on RVH-421 it was 46.7%; with SkMel28, 97.1%; in the assay on SkMel30 it was 60.7%; with UACC62 it was 36.5%.
Turning to `NC1(c2ccc(-c3nc4ccn5c(=O)[nH]nc5c4cc3-c3ccccc3)cc2)CCC1` + Nc1nc(F)nc2c1ncn2[C@@H]1O[C@H](CO)[C@@H](O)[C@@H]1O [fludarabine] (first compound 0.4 µM, partner dose 0.2 µM), the “cleaved PARP positive nuclei fraction” value stood at 215% in the assay on MeWo; 51.4% in the assay on RPMI7951; 89.8% with RVH-421; 116% with SkMel28; 285% with SkMel2; 1940% in the assay with SkMel30. Moreover, the “cleaved PARP positive nuclei fraction” value in the assay on UACC62 stood at 1090%.
With `C[C@]1(O)C[C@@H](c2nc(-c3ccc4ccc(-c5ccccc5)nc4c3)c3c(N)nccn32)C1` + Cn1cc(/C=C2\C(=O)Nc3cccnc32)c2ccccc21 [GW441756] (first compound 0.4 µM, partner dose 0.4 µM), the “cleaved PARP positive nuclei fraction” value was determined as 44.7% in the assay on MeWo; 138% with RPMI7951; 181% in the assay with RVH-421; 154% in the assay on SkMel28; 114% in the assay on SkMel30; 47.9% with SkMel5. Moreover, the figures for the “cleaved PARP positive nuclei fraction” value in the assay with UACC257 and with UACC62 were 336% and 152%, respectively.
As to `CC1(C)CCC(c2ccc(Cl)cc2)=C(CN2CCN(c3ccc(C(=O)NS(=O)(=O)c4ccc(N[C@H](CCN5CCOCC5)CSc5ccccc5)c(S(=O)(=O)C(F)(F)F)c4)cc3)CC2)C1` + C=CCNC1=C2C[C@@H](C)C[C@H](OC)[C@H](O)[C@@H](C)/C=C(\C)[C@H](OC(N)=O)[C@@H](OC)/C=C\C=C(/C)C(=O)NC(=CC1=O)C2=O [Tanespimycin] (first compound 0.4 µM, partner dose 0.002 µM), the “cleaved PARP positive nuclei fraction” value was 345% in the assay with MeWo; 242% in the assay on RPMI7951; 69.6% with RVH-421; 199% in the assay on SkMel28; 175% with SkMel2; 280% in the assay with SkMel30. For the same compound, in the assay with UACC62, the “cleaved PARP positive nuclei fraction” value amounted to 40%.
On to `NC(=O)c1ccc(N(C(N)=O)c2c(F)cccc2F)nc1-c1ccc(F)cc1F` + COCC[n+]1c2c(n(Cc3cnccn3)c1C)C(=O)c1ccccc1C2=O [YM155] (first compound 0.4 µM, partner dose 0.0004 µM), for which the “cleaved PARP positive nuclei fraction” value was determined as 387% in the assay with MeWo; 89.9% in the assay on RPMI7951; 127% in the assay with RVH-421; 230% with SkMel28; 190% in the assay with SkMel2; 48.9% in the assay on SkMel30. Further, in the assay with UACC62, the “cleaved PARP positive nuclei fraction” value amounted to 87.8%.
As to `CC1(C)CCC(c2ccc(Cl)cc2)=C(CN2CCN(c3ccc(C(=O)NS(=O)(=O)c4ccc(N[C@H](CCN5CCOCC5)CSc5ccccc5)c(S(=O)(=O)C(F)(F)F)c4)cc3)CC2)C1` + COc1ccc2c(c1)CCC1C2CCC2(C)C(NCCCCCCN3C(=O)C=CC3=O)CCC12 [U73122] (first compound 0.4 µM, partner dose 0.4 µM), the “cleaved PARP positive nuclei fraction” value was 117% with MeWo; 336% in the assay on RPMI7951; 183% in the assay on RVH-421; 167% in the assay on SkMel28; 61.8% in the assay on SkMel30; 209% in the assay with SkMel5. Moreover, the figures for the “cleaved PARP positive nuclei fraction” value in the assay on UACC257 and in the assay with UACC62 were 205% and 209%, respectively.
`NC(=O)c1ccc(N(C(N)=O)c2c(F)cccc2F)nc1-c1ccc(F)cc1F` + CS(=O)(=O)c1ccc(C(=O)Nc2ccc(Cl)c(-c3ccccn3)c2)c(Cl)c1 [vismodegib] (first compound 0.4 µM, partner dose 1 µM): the “cleaved PARP positive nuclei fraction” value came to 49.5% in the assay on MeWo; 125% with RPMI7951; 77.1% with RVH-421; 75.6% with SkMel28; 113% in the assay with SkMel2; 74.3% in the assay with SkMel30. In addition, the “cleaved PARP positive nuclei fraction” value in the assay with UACC62 came out at 68.8%.
Turning to `NC(=O)c1ccc(N(C(N)=O)c2c(F)cccc2F)nc1-c1ccc(F)cc1F` + CCc1ccc(CCOc2ccc(CC3SC(=O)NC3=O)cc2)nc1 [pioglitazone] (first compound 0.4 µM, partner dose 2 µM), the “cleaved PARP positive nuclei fraction” value with MeWo was found to be 24.6%; with RPMI7951, 75.4%; in the assay on RVH-421, 110%; in the assay with SkMel28 it was 65.4%; in the assay with SkMel30, 34.1%; with SkMel5, 67.9%. Moreover, the results for the “cleaved PARP positive nuclei fraction” value in the assay on UACC257 and with UACC62 were 243% and 63.1%, respectively.
`CC1(C)CCC(c2ccc(Cl)cc2)=C(CN2CCN(c3ccc(C(=O)NS(=O)(=O)c4ccc(N[C@H](CCN5CCOCC5)CSc5ccccc5)c(S(=O)(=O)C(F)(F)F)c4)cc3)CC2)C1` + O=C(Nc1cccc(Cl)c1)Nc1ncc(CCNc2ncnc3ccsc23)s1 [SNS314] (first compound 0.4 µM, partner dose 0.0008 µM): the “cleaved PARP positive nuclei fraction” value was 62.2% with MeWo; 213% in the assay on RPMI7951; 81.2% in the assay on RVH-421; 172% in the assay with SkMel28; 77.4% with SkMel30; 194% in the assay on SkMel5. The “cleaved PARP positive nuclei fraction” value with UACC257 amounted to 116%; in the assay on UACC62, 211%.
In the case of `CN(c1ncccc1CNc1nc(Nc2ccc3c(c2)CC(=O)N3)ncc1C(F)(F)F)S(C)(=O)=O` + CC(=O)c1c(C)c2cnc(Nc3ccc(N4CCNCC4)cn3)nc2n(C2CCCC2)c1=O [palbociclib] (first compound 0.08 µM, partner dose 0.04 µM), the “cleaved PARP positive nuclei fraction” value with MeWo came to 139%; in the assay with RPMI7951, 81.6%; with RVH-421, 114%; in the assay on SkMel28, 55.4%; in the assay on SkMel30, 53.5%; with UACC62 it was 116%.
On to `CCCCCCCCc1ccc(CCC(N)(CO)CO)cc1` [fingolimod] + COc1cc(N2CCC(N3CCN(C)CC3)CC2)ccc1Nc1ncc(Cl)c(Nc2ccccc2S(=O)(=O)C(C)C)n1 [NVP-TAE684] (first compound 2 µM, partner dose 0.08 µM), for which the “cleaved PARP positive nuclei fraction” value in the assay on MeWo was 100%; in the assay with RPMI7951 it was 296%; with RVH-421, 87.3%; with SkMel28, 370%; with SkMel30, 45.4%; with SkMel5 it was 206%. Moreover, the “cleaved PARP positive nuclei fraction” value with UACC257 amounted to 91.5%; in the assay on UACC62 it was 198%.
As to `CN(c1ncccc1CNc1nc(Nc2ccc3c(c2)CC(=O)N3)ncc1C(F)(F)F)S(C)(=O)=O` + COCC[n+]1c2c(n(Cc3cnccn3)c1C)C(=O)c1ccccc1C2=O [YM155] (first compound 0.08 µM, partner dose 0.0004 µM), the “cleaved PARP positive nuclei fraction” value in the assay with MeWo amounted to 53.2%; with RPMI7951, 117%; in the assay on RVH-421 it was 177%; in the assay on SkMel28, 51.4%; in the assay on SkMel30 it was 153%; in the assay on UACC62, 169%.
In the case of `CC1(C)CCC(c2ccc(Cl)cc2)=C(CN2CCN(c3ccc(C(=O)NS(=O)(=O)c4ccc(N[C@H](CCN5CCOCC5)CSc5ccccc5)c(S(=O)(=O)C(F)(F)F)c4)cc3)CC2)C1` + Cn1nnc2c(C(N)=O)ncn2c1=O [temozolomide] (first compound 0.4 µM, partner dose 2 µM), the “cleaved PARP positive nuclei fraction” value amounted to 386% in the assay with MeWo; 288% in the assay with RPMI7951; 267% in the assay with RVH-421; 82.9% in the assay with SkMel28; 261% in the assay on SkMel30; 183% with UACC62.
Take `CN(c1ncccc1CNc1nc(Nc2ccc3c(c2)CC(=O)N3)ncc1C(F)(F)F)S(C)(=O)=O` + COc1cc2c(Oc3ccc4[nH]c(C)cc4c3F)ncnc2cc1OCCCN1CCCC1 [cediranib] (first compound 0.08 µM, partner dose 0.4 µM): the “cleaved PARP positive nuclei fraction” value was determined as 50.3% in the assay on MeWo; 203% in the assay with RPMI7951; 101% in the assay with RVH-421; 56.7% with SkMel28; 55.5% with SkMel30; 43.7% in the assay on SkMel5. For the same compound, the “cleaved PARP positive nuclei fraction” value in the assay with UACC257 amounted to 245%; with UACC62, 212%.
For `C[C@@H](N)c1ccc(C(=O)Nc2ccnc3[nH]ccc23)cc1` + C[C@@H](Oc1cc(-c2cnn(C3CCNCC3)c2)cnc1N)c1c(Cl)ccc(F)c1Cl [Crizotinib] (first compound 0.4 µM, partner dose 0.2 µM), the “cleaved PARP positive nuclei fraction” value with MeWo came to 148%; with RPMI7951, 60.7%; with RVH-421, 17%; with SkMel28, 86.1%; in the assay with SkMel2, 88.2%; in the assay with SkMel30, 92.4%. Besides, in the assay on UACC62, the “cleaved PARP positive nuclei fraction” value came out at 101%.
Consider `C[C@@H](N)c1ccc(C(=O)Nc2ccnc3[nH]ccc23)cc1` + Cn1nnc2c(C(N)=O)ncn2c1=O [temozolomide] (first compound 0.4 µM, partner dose 2 µM), for which the “cleaved PARP positive nuclei fraction” value with MeWo came to 285%; in the assay with RPMI7951, 69.9%; with RVH-421, 261%; in the assay on SkMel28 it was 115%; with SkMel2 it was 67.4%; with SkMel30, 108%. The “cleaved PARP positive nuclei fraction” value in the assay on UACC62 turned out to be 56.3%.
In the case of `CCN(CC)CCNC(=O)c1c(C)[nH]c(/C=C2\C(=O)Nc3ccc(F)cc32)c1C` [sunitinib] + CS(=O)(=O)CCNCc1ccc(-c2ccc3ncnc(Nc4ccc(OCc5cccc(F)c5)c(Cl)c4)c3c2)o1 [lapatinib] (first compound 0.4 µM, partner dose 0.8 µM), the “cleaved PARP positive nuclei fraction” value with MeWo came out at 168%; in the assay with RPMI7951 it was 209%; in the assay on RVH-421, 30.1%; in the assay with SkMel28, 44.3%; in the assay with SkMel30, 107%; in the assay with UACC62 it was 181%.
